This is one part of the list.

The values that follow come from PMC7819943, “Rice protein-binding microarrays: a tool to detect cis-acting elements near promoter regions in rice”.

The target in this assay is T1, OsSMF1 (Oryza sativa, UniProt Q6ZLB0 1-436).
T1 sequence: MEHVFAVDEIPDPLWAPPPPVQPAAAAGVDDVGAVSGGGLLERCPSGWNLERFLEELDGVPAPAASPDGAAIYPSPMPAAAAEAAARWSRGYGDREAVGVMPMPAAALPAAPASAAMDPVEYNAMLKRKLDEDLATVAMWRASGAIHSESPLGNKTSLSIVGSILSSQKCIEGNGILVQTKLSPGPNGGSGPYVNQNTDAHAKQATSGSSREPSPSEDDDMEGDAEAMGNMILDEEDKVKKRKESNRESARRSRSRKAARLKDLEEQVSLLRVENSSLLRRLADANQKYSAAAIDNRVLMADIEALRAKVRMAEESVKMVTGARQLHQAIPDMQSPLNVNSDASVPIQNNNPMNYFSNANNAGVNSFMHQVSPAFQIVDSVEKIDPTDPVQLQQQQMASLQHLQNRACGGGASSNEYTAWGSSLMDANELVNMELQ
Kind of assay: protein-binding microarray (RPBM); PBS, 2% BSA, 51.3 ng/ul salmon testes DNA, 50 uM zinc acetate, 200 nM TF, 25 C, 1 h; high values mean tight binding. The conditions noted are these: protein: recombinant; tags: N-terminal polyhistidine and DsRed monomer fusion (pET32a); chain copies: 2; label: CyDye5-dUTP incorporated in the synthesized complementary strand; 3' TTTTT single-stranded linker to array surface; dsDNA, one strand shown. In outline: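 For the binding signal, per-feature fluorescence intensity was read in arbitrary units on an Axon 4000B scanner. Before scanning, a 2% BSA-blocked custom Agilent array made double-stranded with Cy5-dUTP was washed after 1 h at 25 °C with 200 nM protein and 50 µM zinc acetate. The proteins were Ni–NTA-purified transcription factors with N-terminal polyhistidine and DsRed fusions, expressed in E. coli BL21-CodonPlus.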
Consider “TCTGACGGGCGATGACGACGACGACGGTGCAAAAGCCTGACGGAGTCACCTAGTGCAG”, for which the binding signal is 3310 fluorescence intensity (a.u.).

“TCGACCTTCCTTTCCTGTCGCCATCTTCACCGTCTTGCCACGGAGTCACCTAGTGCAG”: the binding signal is 3370 fluorescence intensity (a.u.).

For the sequence “CCATTGACTGGATTGTAGTATAACAAGATGGATGATGCATCGGAGTCACCTAGTGCAG”, the binding signal was 3180 fluorescence intensity (a.u.).

As for “AGGCTCGCTTGGTGGCACGTGGCTTCGTGCAGCAGGAGGGCGGAGTCACCTAGTGCAG”, the binding signal is 3220 fluorescence intensity (a.u.).

Consider “GATGCTTGCGTGAGCCAGGAGCAGAGCCGGCTCTTCCTCTCGGAGTCACCTAGTGCAG”, for which the binding signal was 3190 fluorescence intensity (a.u.).

Consider “TCCAACCGCTCGATCACCGCCGGTCTGACCGGCATACACACGGAGTCACCTAGTGCAG”, for which the binding signal was 3230 fluorescence intensity (a.u.).

With “CACACATTCGCACCGCCGACGCCGAACAGAACAACAACAACGGAGTCACCTAGTGCAG”, the binding signal is 64700 fluorescence intensity (a.u.).

On to “AGTTCGGCTGATCTGATCTAAATCACGTGGCAATAGGCCGCGGAGTCACCTAGTGCAG”, for which the binding signal is 5060 fluorescence intensity (a.u.).

As to “CCCTCTTCTTCTTCCTAGTCACCTTCACTTGATCAGTTAGCGGAGTCACCTAGTGCAG”, the binding signal was 7140 fluorescence intensity (a.u.).

With “TATATATATATATATATATATATATTTCATATGAAACACACGGAGTCACCTAGTGCAG”, the binding signal was 3500 fluorescence intensity (a.u.).

Turning to “GGAAGAGCCCAATTAACCGTACTATTGTTGCGTCATGGGCCGGAGTCACCTAGTGCAG”, the binding signal was 4600 fluorescence intensity (a.u.).

In the case of “CTTCACTAAGGTCATCGTCGTGCCTTCCTCGTCCTCCTCCCGGAGTCACCTAGTGCAG”, the binding signal is 43800 fluorescence intensity (a.u.).

On to “ATTGGGAACAATATATTCTGTCTAGATCGTGATGGTAAGACGGAGTCACCTAGTGCAG”, for which the binding signal is 3200 fluorescence intensity (a.u.).

As for “TCACCGGCGTACCTTAGCTTAGTCCTAGTAATTAAATGTACGGAGTCACCTAGTGCAG”, the binding signal was 5000 fluorescence intensity (a.u.).

With “CATATAATTGATAGCAGCATGACAGATTGCCAGTTAGCCGCGGAGTCACCTAGTGCAG”, the binding signal is 3290 fluorescence intensity (a.u.).

Take “GCCGAGTAGAGGACAAACACACACGTGTTCATCCTAACGACGGAGTCACCTAGTGCAG”: the binding signal was 3300 fluorescence intensity (a.u.).

For the sequence “TGCGCACGAGCAACACGTACGCAAGGGAGAAGGAGAGATCCGGAGTCACCTAGTGCAG”, the binding signal is 4290 fluorescence intensity (a.u.).

For the sequence “GATGTTCAGATGTACAACAGTAATTTGATTGCATCGGCTTCGGAGTCACCTAGTGCAG”, the binding signal is 3270 fluorescence intensity (a.u.).

On to “GCTCTGCACGTGCCCTGCGGTTGCTCCATGTTGATAGTAGCGGAGTCACCTAGTGCAG”, for which the binding signal was 22500 fluorescence intensity (a.u.).

Consider “CTAGATGAATACCCCGCCACGTTGCTGCGGAAAATTAAGTCGGAGTCACCTAGTGCAG”, for which the binding signal is 3690 fluorescence intensity (a.u.).

In the case of “TAATTTAGTTTTATATAAGTTGAAGGACGTGTTATATTAGCGGAGTCACCTAGTGCAG”, the binding signal is 3180 fluorescence intensity (a.u.).

Take “GAACGGAGGCGCTTTATACTTCTCTTCGCCTTGTCAAATTCGGAGTCACCTAGTGCAG”: the binding signal is 3150 fluorescence intensity (a.u.).

Regarding “TGACATGTGGGGTTCTAGGAATAGGCGTGTATCTAACAAGCGGAGTCACCTAGTGCAG”, the binding signal was 3480 fluorescence intensity (a.u.).

As to “ATCATCTCCTCTCGGTCCATCACAACACCTCCGCCTCCCACGGAGTCACCTAGTGCAG”, the binding signal is 3160 fluorescence intensity (a.u.).

Turning to “ATTCTGTCTCCTTTGCCTGTCGTCACGCTGTCATCACGCTCGGAGTCACCTAGTGCAG”, the binding signal is 4480 fluorescence intensity (a.u.).

With “GATTAATGATGAAACCCATTCCATAACCCTGGACTAATTCCGGAGTCACCTAGTGCAG”, the binding signal was 26300 fluorescence intensity (a.u.).

Turning to “GTTCTTGTCCTAAGTGGAACAACCACGTCATATCACGGGTCGGAGTCACCTAGTGCAG”, the binding signal is 7760 fluorescence intensity (a.u.).

Take “CATCACGCTGACGTGTCCTTTCGTTTGGACACGGACATCTCGGAGTCACCTAGTGCAG”: the binding signal is 15000 fluorescence intensity (a.u.).

“CGGCACACCCAGCGATGGCCGCCTCATCCACCGCCACGTTCGGAGTCACCTAGTGCAG”: the binding signal was 4000 fluorescence intensity (a.u.).

Take “GCTGCAGCTGCGGCAGTAATGGCCGGGTTCCCGGGTGTTGCGGAGTCACCTAGTGCAG”: the binding signal is 3160 fluorescence intensity (a.u.).

In the case of “GAGGGCTCTGTTTCTGGAAGATATGACGTGGGAGTGGGAGCGGAGTCACCTAGTGCAG”, the binding signal was 10100 fluorescence intensity (a.u.).

For “AGCAACATACATGGGTATTACGGCCACATGCGCGCTAATGCGGAGTCACCTAGTGCAG”, the binding signal was 3410 fluorescence intensity (a.u.).

In the case of “AGGGAGAGGATTCCCGGCGAGCCGGCGGGCGGGCGGGATACGGAGTCACCTAGTGCAG”, the binding signal is 3240 fluorescence intensity (a.u.).

Turning to “TAAGTTTAGTTGATATGACATGTAAGTGTACAGTTACACTCGGAGTCACCTAGTGCAG”, the binding signal was 3710 fluorescence intensity (a.u.).

With “CCTCTCCCTGTCGGCCTCGACGGCCATCCCTCCCTCCCTACGGAGTCACCTAGTGCAG”, the binding signal is 31800 fluorescence intensity (a.u.).

Consider “AGAGGGTTGGTGTAGTGGCAGGGGAGTGACGGTGCGCGGTCGGAGTCACCTAGTGCAG”, for which the binding signal was 3180 fluorescence intensity (a.u.).

With “AGGTTGCAAAGAAACAGCCAAGCAAATGGCAGGAGTCCAGCGGAGTCACCTAGTGCAG”, the binding signal was 3340 fluorescence intensity (a.u.).

Turning to “AACCAATCACGTCGCAGATAAGGCCTGACAGGTGTGCCCCCGGAGTCACCTAGTGCAG”, the binding signal is 4420 fluorescence intensity (a.u.).

On to “GGATAAGGCCCAACGTGTGCTCCTCAACCTCCTCCTTCAACGGAGTCACCTAGTGCAG”, for which the binding signal was 3280 fluorescence intensity (a.u.).

On to “TCGAAATCCACCGCGCGGGCACGGGGCACGAGACCAACCACGGAGTCACCTAGTGCAG”, for which the binding signal is 8530 fluorescence intensity (a.u.).

“TCTCCTTACACTCTGACGCACAAACTCAGGGGATTCATCACGGAGTCACCTAGTGCAG”: the binding signal is 4050 fluorescence intensity (a.u.).

As to “CCTGTAGGGAAAACGGCTTTCCTATACGGCGTGTATACGGCGGAGTCACCTAGTGCAG”, the binding signal was 3140 fluorescence intensity (a.u.).
